The target in the assay is mitochondrial heat shock protein 70kD (HSPA9) (human (endogenous in HEK293)) (UniProt P38646). Description: co-IP; co-IP of HSPA9 and its interacting proteins in HEK293 cells, control or overexpressing miPEP133; western blot.

By UniProt entry, the sequences of proteins in these tests, tags left out. Residues count along the entry.
UniProt P38646, residues 47-679: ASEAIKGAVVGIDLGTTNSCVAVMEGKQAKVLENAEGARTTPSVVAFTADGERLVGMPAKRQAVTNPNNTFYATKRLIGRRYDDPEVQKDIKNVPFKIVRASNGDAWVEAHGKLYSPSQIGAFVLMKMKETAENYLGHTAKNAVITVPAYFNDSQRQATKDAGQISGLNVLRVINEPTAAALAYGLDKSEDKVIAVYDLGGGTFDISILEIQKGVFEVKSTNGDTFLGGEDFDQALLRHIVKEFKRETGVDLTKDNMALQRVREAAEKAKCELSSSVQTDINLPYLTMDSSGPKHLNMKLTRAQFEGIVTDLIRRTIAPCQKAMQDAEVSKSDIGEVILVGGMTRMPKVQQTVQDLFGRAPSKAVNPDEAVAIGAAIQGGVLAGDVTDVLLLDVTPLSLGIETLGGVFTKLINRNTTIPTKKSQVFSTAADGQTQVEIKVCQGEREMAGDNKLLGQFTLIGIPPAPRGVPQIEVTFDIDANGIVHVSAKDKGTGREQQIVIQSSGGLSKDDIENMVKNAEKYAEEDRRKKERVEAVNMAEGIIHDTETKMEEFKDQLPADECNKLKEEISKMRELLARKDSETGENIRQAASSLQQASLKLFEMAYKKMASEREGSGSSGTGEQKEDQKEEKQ
UniProt P21796: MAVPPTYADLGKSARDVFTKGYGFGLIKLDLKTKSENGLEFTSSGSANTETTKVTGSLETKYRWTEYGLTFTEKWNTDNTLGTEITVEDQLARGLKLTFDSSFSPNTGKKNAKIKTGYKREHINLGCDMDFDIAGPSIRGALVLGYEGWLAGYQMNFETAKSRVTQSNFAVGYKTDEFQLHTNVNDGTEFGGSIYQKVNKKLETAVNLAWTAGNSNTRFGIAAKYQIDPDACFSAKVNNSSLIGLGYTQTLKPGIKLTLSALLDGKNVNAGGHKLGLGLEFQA
UniProt P10809, residues 27-573: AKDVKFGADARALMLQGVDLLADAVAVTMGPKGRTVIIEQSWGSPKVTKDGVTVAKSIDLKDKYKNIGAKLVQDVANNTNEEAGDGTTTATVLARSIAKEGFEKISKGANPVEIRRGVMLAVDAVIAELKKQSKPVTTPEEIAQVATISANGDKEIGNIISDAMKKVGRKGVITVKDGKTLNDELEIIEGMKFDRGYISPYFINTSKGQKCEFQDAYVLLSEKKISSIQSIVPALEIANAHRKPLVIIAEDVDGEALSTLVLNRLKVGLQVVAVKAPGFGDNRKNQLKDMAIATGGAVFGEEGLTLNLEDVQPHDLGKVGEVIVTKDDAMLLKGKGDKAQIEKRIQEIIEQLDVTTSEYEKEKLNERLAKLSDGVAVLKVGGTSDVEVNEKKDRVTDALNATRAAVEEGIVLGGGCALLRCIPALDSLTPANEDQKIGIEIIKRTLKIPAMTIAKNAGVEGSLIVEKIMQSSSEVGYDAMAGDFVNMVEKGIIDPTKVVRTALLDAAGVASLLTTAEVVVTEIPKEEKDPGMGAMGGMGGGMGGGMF

No constants are given. Whether binding was seen depends on the method and setting. Binding seen in cells or lysates may run through a third protein. Some results given as binding are weak or reduced against the parent protein; the word gives no strength.

Take “Voltage Dependent Anion Channel 1 (from UniProt P21796 1-283)”: the binding result is on record as “binds”.

In the case of “Heat shock protein 60 (from UniProt P10809 27-573)”, the binding result is reported as “binds”.
